This is an account of results in patent publication US6245791A, “Use of 2-amino-6-trifluoromethoxybenzothiazole for the prevention or treatment of cerebellar dysfunction” (Aventis Pharma S.A., priority 1998, dated 2001).

Molecules are shown by their SMILES.

Assay [1] deals with glutamate uptake in synaptosomes of rat cerebellum. The conditions noted are these: read-out: half-maximum effective concentration (EC50) for increase in glutamate uptake; rat cerebellar synaptosomes, specific (sodium-dependent) uptake, 3 min at 37° C., pH 7.3, sigmoidal regression, n=8.
Assay [2] deals with glutamate uptake in preparations from cerebral cortex, striatum, spinal cord. The conditions noted are these: striatum or spinal cord.

In the case of `Nc1nc2ccc(OC(F)(F)F)cc2s1` [riluzole, 2-amino-6-trifluoromethoxybenzothiazole], in assay [1], the EC50 is 24.5 µM. The “increase in glutamate transport (result in words)” value in assay [2] is “not observed”.
